Laboratory results reported in article PMC11444248.
No constants are given. Whether binding was seen depends on the method and setting. In cells and extracts the contact can be indirect. Some results given as binding are weak or reduced against the parent protein; the word gives no strength. Each block holds one binder with its values, some of them ahead of it.

Chains of the proteins cited; added tags and fusions are not shown. Residues count along the entry.
UniProt P56726, residues 33-793: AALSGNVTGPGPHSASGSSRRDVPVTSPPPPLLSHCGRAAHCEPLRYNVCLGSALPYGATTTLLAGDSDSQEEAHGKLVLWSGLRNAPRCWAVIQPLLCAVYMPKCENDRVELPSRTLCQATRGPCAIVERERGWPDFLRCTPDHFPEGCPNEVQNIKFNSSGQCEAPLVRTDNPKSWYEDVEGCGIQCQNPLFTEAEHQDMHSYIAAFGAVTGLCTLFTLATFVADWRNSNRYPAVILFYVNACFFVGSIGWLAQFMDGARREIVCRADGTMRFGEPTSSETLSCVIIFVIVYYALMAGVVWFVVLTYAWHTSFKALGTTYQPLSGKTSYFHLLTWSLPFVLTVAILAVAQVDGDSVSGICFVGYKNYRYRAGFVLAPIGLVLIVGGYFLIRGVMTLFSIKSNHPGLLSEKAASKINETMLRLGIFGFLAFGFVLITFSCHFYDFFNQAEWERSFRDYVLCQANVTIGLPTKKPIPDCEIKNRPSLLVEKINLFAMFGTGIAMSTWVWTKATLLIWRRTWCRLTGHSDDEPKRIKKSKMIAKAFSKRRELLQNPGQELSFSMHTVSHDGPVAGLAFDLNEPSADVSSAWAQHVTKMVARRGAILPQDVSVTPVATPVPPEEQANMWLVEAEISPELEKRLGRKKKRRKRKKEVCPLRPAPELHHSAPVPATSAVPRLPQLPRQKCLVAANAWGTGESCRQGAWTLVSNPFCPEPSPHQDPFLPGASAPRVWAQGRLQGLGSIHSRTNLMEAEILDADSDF

Columns and labels:
[1] = molecular target: Smoothened (Smo) (mouse (endogenous in primary hepatocytes)) (UniProt P56726); assay: co-IP; immunoprecipitation in extracts from mouse primary hepatocytes, detection by Western blot; which protein was precipitated is not told in the text or legend
[2] = molecular target: T1, thymidine phosphorylase (TP) (mouse (endogenous in primary hepatocytes)) (UniProt Q99N42); assay: as above
T1 sequence: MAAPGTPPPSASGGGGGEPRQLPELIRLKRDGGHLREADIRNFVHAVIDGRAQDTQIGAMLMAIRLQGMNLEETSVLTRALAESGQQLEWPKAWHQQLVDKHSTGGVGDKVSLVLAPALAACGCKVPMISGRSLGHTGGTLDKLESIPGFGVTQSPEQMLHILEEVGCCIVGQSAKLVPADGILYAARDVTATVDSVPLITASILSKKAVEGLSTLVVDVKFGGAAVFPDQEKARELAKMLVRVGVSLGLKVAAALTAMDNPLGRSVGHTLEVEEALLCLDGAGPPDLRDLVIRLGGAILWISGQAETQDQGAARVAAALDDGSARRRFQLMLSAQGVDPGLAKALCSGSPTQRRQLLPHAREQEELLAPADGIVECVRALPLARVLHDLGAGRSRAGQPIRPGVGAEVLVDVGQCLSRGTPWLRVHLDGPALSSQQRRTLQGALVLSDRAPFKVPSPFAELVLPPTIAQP

- binding [1]: binds
- binding [2]: binds
B1: nuclear factor erythroid 2-related factor 2 (Nrf2) (protein, UniProt Q60795 1-597)
chain: MMDLELPPPGLQSQQDMDLIDILWRQDIDLGVSREVFDFSQRQKDYELEKQKKLEKERQEQLQKEQEKAFFAQFQLDEETGEFLPIQPAQHIQTDTSGSASYSQVAHIPKQDALYFEDCMQLLAETFPFVDDHESLALDIPSHAESSVFTAPHQAQSLNSSLEAAMTDLSSIEQDMEQVWQELFSIPELQCLNTENKQLADTTAVPSPEATLTEMDSNYHFYSSISSLEKEVGNCGPHFLHGFEDSFSSILSTDDASQLTSLDSNPTLNTDFGDEFYSAFIAEPSDGGSMPSSAAISQSLSELLDGTIEGCDLSLCKAFNPKHAEGTMEFNDSDSGISLNTSPSRASPEHSVESSIYGDPPPGFSDSEMEELDSAPGSVKQNGPKAQPAHSPGDTVQPLSPAQGHSAPMRESQCENTTKKEVPVSPGHQKAPFTKDKHSSRLEAHLTRDELRAKALHIPFPVEKIINLPVDDFNEMMSKEQFNEAQLALIRDIRRRGKNKVAAQNCRKRKLENIVELEQDLGHLKDEREKLLREKGENDRNLHLLKRRLSTLYLEVFSMLRDEDGKPYSPSEYSLQQTRDGNVFLVPKSKKPDTKKN

- binding [1]: binds
- binding [2]: binds
B2: HO1 (enzyme, UniProt P14901 1-289)
chain: MERPQPDSMPQDLSEALKEATKEVHIQAENAEFMKNFQKGQVSREGFKLVMASLYHIYTALEEEIERNKQNPVYAPLYFPEELHRRAALEQDMAFWYGPHWQEIIPCTPATQHYVKRLHEVGRTHPELLVAHAYTRYLGDLSGGQVLKKIAQKAMALPSSGEGLAFFTFPNIDSPTKFKQLYRARMNTLEMTPEVKHRVTEEAKTAFLLNIELFEELQVMLTEEHKDQSPSQMASLRQRPASLVQDTAPAETPRGKPQISTSSSQTPLLQWVLTLSFLLATVAVGIYAM

- binding [1]: binds
B3: thymidine phosphorylase (TP) (enzyme, UniProt Q99N42 1-471)
chain: T1 sequence
